{"source": "PubChem BioAssay AID602196, INSERM, 2012", "purpose": "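Genes whose knock-down alters cisplatin killing of lung cancer cells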", "system": "human A549 lung cancer cells", "reagents": "siRNA pair against human genes", "timing": "48 h transfection before cisplatin; time from cisplatin to read-out not stated", "treatment": "cisplatin at a dose killing half of control-siRNA cells; exact dose and duration not given", "read-out": "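Cisplatin cell death as a shift from the 50% death seen with control siRNA; siRNAs toxic or growth-blocking alone scored 0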", "scale": "two-siRNA summed score (-2 to +2): higher = both siRNAs protect from cisplatin killing; -2 means both sensitise; mean protection from cisplatin (shift in death): higher = protection from cisplatin killing", "active means": "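Each siRNA scores 0 if harmful alone by LDH or WST-1, otherwise +1 if it reduces and -1 if it increases cisplatin killing; a gene is active when both siRNAs agree (sum +2 or -2)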", "calls": "active = both siRNAs shift cisplatin killing the same way; inactive = no consistent shift, or siRNA harmful alone", "note": "Here is a random part of about 23,000 reagents tested. Over the whole deposit, 455 (2%) were called active. 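Active includes both protection and sensitisation; some change values fall well beyond the stated -50 to +50 range.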 Unmarked entries are inactive. Not all columns of the deposit are shown. The record does not give: the amount of reagent."}
{"gene knocked down": "ZNF385D", "PubChem SID": "SID131515838", "two-siRNA summed score (-2 to +2)": 0, "mean protection from cisplatin (shift in death) (%)": 9.8}
{"gene knocked down": "LOC139587", "PubChem SID": "SID131517980", "two-siRNA summed score (-2 to +2)": 0, "mean protection from cisplatin (shift in death) (%)": 15.7}
{"gene knocked down": "ZNF267", "PubChem SID": "SID131521893", "two-siRNA summed score (-2 to +2)": 1, "mean protection from cisplatin (shift in death) (%)": 15.3}
{"gene knocked down": "LOC400010", "PubChem SID": "SID131507749", "two-siRNA summed score (-2 to +2)": 0, "mean protection from cisplatin (shift in death) (%)": 0.2}
{"gene knocked down": "LYNX1", "PubChem SID": "SID131519600", "two-siRNA summed score (-2 to +2)": 1, "mean protection from cisplatin (shift in death) (%)": 6.6}
{"gene knocked down": "NAT9", "PubChem SID": "SID131505670", "two-siRNA summed score (-2 to +2)": 0, "mean protection from cisplatin (shift in death) (%)": -2.8}
{"gene knocked down": "LOC346910", "PubChem SID": "SID131510995", "two-siRNA summed score (-2 to +2)": 0, "mean protection from cisplatin (shift in death) (%)": 3.9}
{"gene knocked down": "LTB4R2", "PubChem SID": "SID131520882", "two-siRNA summed score (-2 to +2)": 1, "mean protection from cisplatin (shift in death) (%)": 11.4}
{"gene knocked down": "FGF6", "PubChem SID": "SID131514036", "two-siRNA summed score (-2 to +2)": 0, "mean protection from cisplatin (shift in death) (%)": 7.3}
{"gene knocked down": "SDCBP", "PubChem SID": "SID131516470", "two-siRNA summed score (-2 to +2)": 0, "mean protection from cisplatin (shift in death) (%)": 10.9}
{"gene knocked down": "PRRC2C", "PubChem SID": "SID131508395", "two-siRNA summed score (-2 to +2)": 0, "mean protection from cisplatin (shift in death) (%)": 1}
{"gene knocked down": "ODAD2", "PubChem SID": "SID131511962", "two-siRNA summed score (-2 to +2)": 0, "mean protection from cisplatin (shift in death) (%)": 5}

Entries above whose gene name begins with L or l:
{"gene knocked down": "LOC139587", "PubChem SID": "SID131517980", "two-siRNA summed score (-2 to +2)": 0, "mean protection from cisplatin (shift in death) (%)": 15.7}
{"gene knocked down": "LOC400010", "PubChem SID": "SID131507749", "two-siRNA summed score (-2 to +2)": 0, "mean protection from cisplatin (shift in death) (%)": 0.2}
{"gene knocked down": "LYNX1", "PubChem SID": "SID131519600", "two-siRNA summed score (-2 to +2)": 1, "mean protection from cisplatin (shift in death) (%)": 6.6}
{"gene knocked down": "LOC346910", "PubChem SID": "SID131510995", "two-siRNA summed score (-2 to +2)": 0, "mean protection from cisplatin (shift in death) (%)": 3.9}
{"gene knocked down": "LTB4R2", "PubChem SID": "SID131520882", "two-siRNA summed score (-2 to +2)": 1, "mean protection from cisplatin (shift in death) (%)": 11.4}
